Data as given in PubChem BioAssay AID1053208 (Peter MacCallum Cancer Centre, 2014)
Aim: 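Find knock-downs that sensitise mouse osteosarcoma cells to doxorubicin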 (primary screen). Cells: mouse osteosarcoma cells, early-passage culture from an engineered mouse model of fibroblastic bone tumour. Knock-down reagent: siRNA pool against mouse genes, 40 nM. Timing: about 120 h (48 h before drug, then 72 h with drug). Conditions: doxorubicin 100 nM for 72 h, roughly 30-40% inhibitory dose. Measured: 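Luminescent ATP signal taken as viability with or without 100 nM doxorubicin for 72 h; mean of two wells set against non-targeting siRNA and turned into robust z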. Reading the numbers: viability z-score with doxorubicin: higher = more viable cells under doxorubicin; viability z-score without drug: higher = more viable cells with knock-down alone. Rule for the call: 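Called active if knock-down leaves viability unchanged without drug (z within -2 to 2) but lowers it with doxorubicin (z at or under -2)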.
Shown is a random part of about 17,000 reagents. 788 of all reagents (4.7%) were called active. 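Calls rest on z-score classes alone; an extra cut-off of viability at most 70% of control was not applied to them.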 Unmarked entries are inactive. Not all columns of the deposit are shown.

After knock-down of Krt6b (keratin 6B) [SID152310112] the results were combined z-score class no change with or without drug; viability z-score with doxorubicin 0; viability z-score without drug 0.51.
Or2n1b (olfactory receptor family 2 subfamily N member 1B) [SID152309432] scored combined z-score class no change with or without drug; viability z-score with doxorubicin 0.45; viability z-score without drug -0.51.
Stk32b (serine/threonine kinase 32B) [SID152270333] gave combined z-score class no change with or without drug; viability z-score with doxorubicin 1.24; viability z-score without drug -0.67.
For Frzb (frizzled-related protein) [SID152323756], the values are combined z-score class no change with or without drug; viability z-score with doxorubicin 1.57; viability z-score without drug -1.18.
Slco1a1 [SID152276902] gave combined z-score class no change with or without drug; viability z-score with doxorubicin 1.8; viability z-score without drug -0.51.
Rbm28 (RNA binding motif protein 28) [SID152331154] showed combined z-score class no change with or without drug; viability z-score with doxorubicin 1.24; viability z-score without drug -0.51.
Depletion of Or5l14 (olfactory receptor family 5 subfamily L member 14) [SID152299104] came out at: combined z-score class no change with or without drug; viability z-score with doxorubicin -0.45; viability z-score without drug -0.34.
With knock-down of Mag (myelin-associated glycoprotein) [SID152318255], the record shows combined z-score class no change with or without drug; viability z-score with doxorubicin -1.12; viability z-score without drug -1.18.
For Aebp2 (AE binding protein 2) [SID152318415], the entry reads combined z-score class no change with or without drug; viability z-score with doxorubicin 0; viability z-score without drug -0.67.
With knock-down of Nalf1 (NALCN channel auxiliary factor 1) [SID152289957] the results were combined z-score class no change with or without drug; viability z-score with doxorubicin -0.45; viability z-score without drug 0.
Crppa (CDP-L-ribitol pyrophosphorylase A) [SID152290731] showed combined z-score class low cell count without drug only; viability z-score with doxorubicin -1.12; viability z-score without drug -2.53.
Knock-down of Or5w1 (olfactory receptor family 5 subfamily W member 1) [SID152304496] came out at: combined z-score class no change with or without drug; viability z-score with doxorubicin -0.67; viability z-score without drug -0.17.
Silencing of Klhl36 (kelch-like 36) [SID152287823] gave: combined z-score class no change with or without drug; viability z-score with doxorubicin 1.91; viability z-score without drug 1.85.
For Ankar (ankyrin and armadillo repeat containing) [SID152321220], the entry reads combined z-score class no change with or without drug; viability z-score with doxorubicin -0.45; viability z-score without drug -0.17.
Nsdhl (NAD(P) dependent steroid dehydrogenase-like) [SID152307367] showed combined z-score class no change with or without drug; viability z-score with doxorubicin 1.12; viability z-score without drug -0.67.
After knock-down of Gcdh (glutaryl-Coenzyme A dehydrogenase) [SID152263683], the screen gave combined z-score class no change with or without drug; viability z-score with doxorubicin 0.56; viability z-score without drug -0.51.
With knock-down of Dipk1c (divergent protein kinase domain 1C) [SID152309675], the screen gave combined z-score class no change with or without drug; viability z-score with doxorubicin 0; viability z-score without drug 0.17.
Depletion of 1700012B09Rik (RIKEN cDNA 1700012B09 gene) [SID152314871] came out at: combined z-score class no change with or without drug; viability z-score with doxorubicin -0.11; viability z-score without drug 0.51.

Already shown: entries from further up.
Mag (myelin-associated glycoprotein) [SID152318255]: combined z-score class = no change with or without drug; viability z-score with doxorubicin = -1.12; viability z-score without drug = -1.18
Aebp2 (AE binding protein 2) [SID152318415]: combined z-score class = no change with or without drug; viability z-score with doxorubicin = 0; viability z-score without drug = -0.67
Nalf1 (NALCN channel auxiliary factor 1) [SID152289957]: combined z-score class = no change with or without drug; viability z-score with doxorubicin = -0.45; viability z-score without drug = 0

Additional reagents follow:
After knock-down of Eif4a1 (eukaryotic translation initiation factor 4A1) [SID152303344], the screen gave combined z-score class low cell count with and without drug; viability z-score with doxorubicin -4.72; viability z-score without drug -2.19.
Agfg2 (ArfGAP with FG repeats 2) [SID152269119] showed combined z-score class no change with or without drug; viability z-score with doxorubicin 0.67; viability z-score without drug 0.84.
Depletion of Prb1b (proline-rich protein BstNI subfamily 1B) [SID152288931] gave: combined z-score class no change with or without drug; viability z-score with doxorubicin 0.9; viability z-score without drug 1.35.
Prb1b (proline-rich protein BstNI subfamily 1B) [SID152291068] scored combined z-score class no change with or without drug; viability z-score with doxorubicin -0.11; viability z-score without drug 1.85.
Depletion of Dhcr24 (24-dehydrocholesterol reductase) [SID152265657] gave: combined z-score class no change with or without drug; viability z-score with doxorubicin 1.57; viability z-score without drug -0.84.
Rps5 (ribosomal protein S5) [SID152271041] gave combined z-score class low cell count with and without drug; viability z-score with doxorubicin -5.62; viability z-score without drug -5.4.
For Arhgap4 (Rho GTPase activating protein 4) [SID152310236] the deposit lists combined z-score class no change with or without drug; viability z-score with doxorubicin -0.22; viability z-score without drug 0.51.
Defb13 (defensin beta 13) [SID152300187] gave combined z-score class no change with or without drug; viability z-score with doxorubicin 0.22; viability z-score without drug 0.67.
Ddx52 (DExD box helicase 52) [SID152326880] showed combined z-score class no change with or without drug; viability z-score with doxorubicin 0; viability z-score without drug 0.51.
With knock-down of Cbx5 (chromobox 5) [SID152314266], the screen gave combined z-score class no change with or without drug; viability z-score with doxorubicin -0.79; viability z-score without drug 0.
